Consider one substance from PMC7872283.

The target of this test is T1, FLAG-tagged checkpoint with FHA and RING finger domains (CHFR) (UniProt Q96EP1).
T1 sequence: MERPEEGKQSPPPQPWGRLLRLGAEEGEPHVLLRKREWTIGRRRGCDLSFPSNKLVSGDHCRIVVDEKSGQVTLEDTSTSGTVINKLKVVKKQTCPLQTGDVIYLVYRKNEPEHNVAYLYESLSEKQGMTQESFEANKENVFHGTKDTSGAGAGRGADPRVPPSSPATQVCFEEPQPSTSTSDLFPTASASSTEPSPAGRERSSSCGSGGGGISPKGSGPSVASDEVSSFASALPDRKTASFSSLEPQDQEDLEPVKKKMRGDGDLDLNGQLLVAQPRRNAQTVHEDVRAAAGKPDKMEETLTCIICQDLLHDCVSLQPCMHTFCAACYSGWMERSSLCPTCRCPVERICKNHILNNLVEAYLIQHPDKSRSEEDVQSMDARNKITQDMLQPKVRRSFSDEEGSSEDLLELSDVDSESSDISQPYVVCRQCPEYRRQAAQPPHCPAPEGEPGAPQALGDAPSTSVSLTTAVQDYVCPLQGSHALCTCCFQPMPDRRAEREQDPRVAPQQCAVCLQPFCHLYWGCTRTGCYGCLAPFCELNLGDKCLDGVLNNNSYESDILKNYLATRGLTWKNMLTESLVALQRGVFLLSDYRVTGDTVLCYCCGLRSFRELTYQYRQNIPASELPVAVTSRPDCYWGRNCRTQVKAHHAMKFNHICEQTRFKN
Put plainly: co-IP.

These are yes or no findings as the source states them, for the method shown. In cells and extracts the contact can be indirect. Binding calls can cover weak binding; strength is not graded here. Sequences can lack the tags named with a protein.

For the substance MYC-tagged PF-8 ΔC (domain or fragment), the binding entry is “binds”.
